Values of other authors, collected in patent US11779768B2, “Protein activity modification” (Impulse Dynamics NV, priority 2004, dated 2023).

Molecular target: CaM kinase
Settings: read-out: Inhibits CaM kinase IC50; advertised; cited from earlier work

For CN[C@@H]1C[C@H]2O[C@@](C)([C@@H]1OC)n1c3ccccc3c3c4c(c5c6ccccc6n2c5c31)C(=O)NC4 [STAUROSPORIN], the IC50 is listed as 20 nM.
